In this experiment the test system is BDF1 mice, B16 melanoma ip, median survival T/C. The experiment in a line: NCI In Vivo Anticancer Drug Screen. Data for tumor model B16 Melanoma (intraperitoneal) in B6D2F1 (BDF1) mice. Conditions: T/C endpoint: median survival time, higher T/C = longer survival. Put shortly: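 The ratio T/C compares compound-treated mice with vehicle-treated controls, using survival or tumor size as the endpoint in a transplantable tumor model.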

[1] abbreviates: dose: 100.0 mg/kg/injection, schedule: Q01DX009 (ip), vehicle: Klucel (hydroxypropylcellulose) (HPC).
Where [2] appears, read: dose: 200.0 mg/kg/injection, schedule: Q01DX009 (ip), vehicle: Klucel (hydroxypropylcellulose) (HPC).
[3] abbreviates: dose: 400.0 mg/kg/injection, schedule: Q01DX009 (ip), vehicle: Klucel (hydroxypropylcellulose) (HPC).
Setting [4] is: dose: 25.0 mg/kg/injection, schedule: Q01DX009 (ip), vehicle: saline.

Molecules are shown by their SMILES. The list does not hold the whole screen: it is rich in T/C values a quarter to a half above the control, in often repeated tests (any T/C) and in doses without a T/C. Further doses and runs are listed elsewhere. T/C is the treated group as % of the vehicle group. Some entries give survivors of the animals treated and no T/C: the source holds a T/C of zero for them, seemingly a mark for toxic or unscored doses. Some doses without a T/C left all or most animals alive at the check, yet need not have been tolerated: the source hardly ever lists a survival T/C far under the control, and the zero likely stands for such cases as well. Survivors were counted at the toxicity check, usually on the fifth day, unless a day is given; later deaths do not show. Schedule codes are those of the source, read here as Q, the interval in days (D) or hours (H), X, the number of doses. Some doses were run more than once; their values stand side by side, smallest first. Where survival is the endpoint, this PubChem deposit counts one and a half times the control or more as active, and values a quarter to a half above the control carry no call in these data; other NCI protocols may use other cut-offs. Some T/C values are followed by the survivors on the day toxicity was checked, most often the fifth; without a count, all were alive then.

For `OCCN1CCN(CCCN2c3ccccc3C=Cc3ccccc32)CC1`, the T/C (dose: 6.25 mg/kg/injection, schedule: Q04DX003 (ip), vehicle: saline) is 130 % of control. The survivor count by setting is: (dose: 100.0 mg/kg/injection, schedule: Q01DX009 (ip), vehicle: saline) 1 of 10; (dose: 100.0 mg/kg/injection, schedule: Q04DX003 (ip), vehicle: saline) 10 of 10; (dose: 200.0 mg/kg/injection, schedule: Q01DX009 (ip), vehicle: saline) 0 of 10; (dose: 200.0 mg/kg/injection, schedule: Q04DX003 (ip), vehicle: saline) 1 of 10; (dose: 400.0 mg/kg/injection, schedule: Q01DX009 (ip), vehicle: saline) 0 of 10; (dose: 400.0 mg/kg/injection, schedule: Q04DX003 (ip), vehicle: saline) 0 of 10.

With `Cc1c(Cl)cccc1NC(=O)COc1ccc(Cl)cc1`, the survivor count by setting is: (dose: 75.0 mg/kg/injection, schedule: Q01DX009 (ip), vehicle: Klucel (hydroxypropylcellulose) (HPC)) 10 of 10; (dose: 150.0 mg/kg/injection, schedule: Q01DX009 (ip), vehicle: Klucel (hydroxypropylcellulose) (HPC)) 10 of 10; (dose: 300.0 mg/kg/injection, schedule: Q01DX009 (ip), vehicle: Klucel (hydroxypropylcellulose) (HPC)) 10 of 10.

As to `Cc1cc(C)nc(NC(=O)Nc2ccccc2)c1`, the survivor count by setting is: under setting [1], 9 of 10; under setting [2], 10 of 10; under setting [3], 10 of 10.

For the molecule `CC[C@@]1(O)C(=O)OCc2c1cc1n(c2=O)Cc2cc3ccccc3nc2-1`, for the setting “dose: 0.2 mg/kg/injection, schedule: Q01DX009 (ip), vehicle: other”, the T/C is 140 % of control. Also, the survivor count is 10 of 10 (dose: 1.57 mg/kg/injection, schedule: Q01DX009 (ip), vehicle: other); 5 of 10 (dose: 3.13 mg/kg/injection, schedule: Q01DX009 (ip), vehicle: other); 0 of 10 (dose: 6.25 mg/kg/injection, schedule: Q01DX009 (ip), vehicle: other).

Regarding `CCc1c(CC(=O)O)c2cc(C)ccc2n1Cc1ccc(Cl)cc1`, the survivor count (dose: 200.0 mg/kg/injection, schedule: Q04DX003 (ip), vehicle: saline with Tween-80) was 1 of 10.

As to `C=CCN(CC=C)CCN1CCN(CCCN2c3ccccc3Sc3ccc(C(F)(F)F)cc32)CC1`, under setting [4], the survivor count is on record as 7 of 10.

Take `CCCC(=O)NC1=C(N2CC2)C(=O)C(NC(=O)CCC)=C(N2CC2)C1=O`: the survivor count runs as follows: (dose: 4.0 mg/kg/injection, schedule: Q01DX009 (ip), vehicle: saline) 10 of 10; (dose: 8.0 mg/kg/injection, schedule: Q01DX009 (ip), vehicle: saline) 5 of 10.

Regarding `COc1cccc2c1cc([N+](=O)[O-])c1c(C(=O)O)cc3c(c12)OCO3`, the survivor count is 10 of 10 (dose: 2.5 mg/kg/injection, schedule: Q01DX009 (ip), vehicle: Klucel (hydroxypropylcellulose) (HPC)); 10 of 10 (dose: 5.0 mg/kg/injection, schedule: Q01DX009 (ip), vehicle: Klucel (hydroxypropylcellulose) (HPC)); 10 of 10 (dose: 10.0 mg/kg/injection, schedule: Q01DX009 (ip), vehicle: Klucel (hydroxypropylcellulose) (HPC)).

Consider `NCC(O)c1ccc(O)c(O)c1` (stereo not drawn), for which the survivor count runs as follows: (dose: 1.56 mg/kg/injection, schedule: Q01DX009 (ip), vehicle: saline) 10 of 10; (dose: 3.12 mg/kg/injection, schedule: Q01DX009 (ip), vehicle: saline) 10 of 10; (dose: 6.25 mg/kg/injection, schedule: Q01DX009 (ip), vehicle: saline) 5 of 10; (dose: 12.5 mg/kg/injection, schedule: Q01DX009 (ip), vehicle: saline) 10 of 10; under setting [4], 1 of 10, 5 of 10, 6 of 10.

Consider `S=c1[nH]c2ccc(Cl)cc2s1`, for which the survivor count runs as follows: (dose: 75.0 mg/kg/injection, schedule: Q04DX003 (ip), vehicle: Klucel (hydroxypropylcellulose) (HPC)) 10 of 10; (dose: 150.0 mg/kg/injection, schedule: Q04DX003 (ip), vehicle: Klucel (hydroxypropylcellulose) (HPC)) 10 of 10; (dose: 300.0 mg/kg/injection, schedule: Q04DX003 (ip), vehicle: Klucel (hydroxypropylcellulose) (HPC)) 10 of 10.

On to `O=S(c1ccccc1)c1c(Cl)c(Cl)nc(Cl)c1Cl` (stereo not drawn), for which the survivor count was 10 of 10 (dose: 25.0 mg/kg/injection, schedule: Q01DX009 (ip), vehicle: Klucel (hydroxypropylcellulose) (HPC)); 6 of 10 (dose: 50.0 mg/kg/injection, schedule: Q01DX009 (ip), vehicle: Klucel (hydroxypropylcellulose) (HPC)); 0 of 10 under setting [1]; 0 of 10 under setting [2].

For `CC(=O)Nc1ccc([N+](=O)[O-])cc1`, the survivor count (dose: 200.0 mg/kg/injection, schedule: Q01DX009 (ip), vehicle: saline with Tween-80) is 10 of 10 and the survivor count (dose: 400.0 mg/kg/injection, schedule: Q01DX009 (ip), vehicle: saline with Tween-80) is given as 7 of 10.

For the molecule `O=Cc1ccc(C=O)c(Cl)c1`, the survivor count (dose: 800.0 mg/kg/injection, schedule: Q01DX009 (ip), vehicle: Klucel (hydroxypropylcellulose) (HPC)) is listed as 0 of 10.

Regarding `CC12CC3OC(=O)C1COC14OC5(C2C1=O)C(O)(CCC1C4CC(O)C2(O)CC=CC(=O)C12C)C(=O)OC35C` (stereo not drawn), where the note is “dose: 48.0 mg/kg/injection, schedule: Q01DX009 (ip), vehicle: Klucel (hydroxypropylcellulose) (HPC)”, the T/C is 129 % of control [8 of 10 alive].

As to `C/C(=N\[N+](C)(C)C)c1ccc(Br)cc1`, the survivor count is, setting by setting: (dose: 150.0 mg/kg/injection, schedule: Q01DX009 (ip), vehicle: saline) 6 of 10; (dose: 225.0 mg/kg/injection, schedule: Q01DX009 (ip), vehicle: saline) 0 of 10; (dose: 335.0 mg/kg/injection, schedule: Q01DX009 (ip), vehicle: saline) 1 of 10.

In the case of `C[n+]1c(-c2cccc(OCCCCCCCOc3cccc(-c4c5cc(N)ccc5c5ccc(N)cc5[n+]4C)c3)c2)c2cc(N)ccc2c2ccc(N)cc21`, the T/C was 148 % of control (dose: 0.08 mg/kg/injection, schedule: Q01DX009 (ip), vehicle: water) and 138 % of control (dose: 0.16 mg/kg/injection, schedule: Q01DX009 (ip), vehicle: water). Besides, the survivor count (dose: 0.32 mg/kg/injection, schedule: Q01DX009 (ip), vehicle: water) is given as 10 of 10.

With `c1ccc(-c2nc3cnccc3o2)cc1`, the survivor count by setting is: (dose: 25.0 mg/kg/injection, schedule: Q04DX003 (ip), vehicle: Klucel (hydroxypropylcellulose) (HPC)) 9 of 10; (dose: 50.0 mg/kg/injection, schedule: Q04DX003 (ip), vehicle: Klucel (hydroxypropylcellulose) (HPC)) 8 of 10.

Consider `[N-]=[N+]=C1N=CN=C1c1ncn[nH]1`, for which the T/C runs as follows: (dose: 12.5 mg/kg/injection, schedule: Q01DX009 (ip), vehicle: carboxymethylcellulose (CMC)) 126 % of control; (dose: 25.0 mg/kg/injection, schedule: Q01DX009 (ip), vehicle: carboxymethylcellulose (CMC)) 143 % of control; (dose: 50.0 mg/kg/injection, schedule: Q01DX009 (ip), vehicle: carboxymethylcellulose (CMC)) 126 % of control. The survivor count (dose: 100.0 mg/kg/injection, schedule: Q01DX009 (ip), vehicle: carboxymethylcellulose (CMC)) is 3 of 10.

As for `O=c1oc(-c2ccccc2I)nc2ccccc12`, the survivor count under setting [3] is on record as 0 of 10.

These data come from PubChem BioAssay AID192 (DTP/NCI, 2004).
